Assay results reported in PubChem BioAssay AID248 (DTP/NCI, 2004).
The list shows only some results of the screen, not a fair sample: it gathers tests that were run many times, whatever their T/C, doses with no T/C, and many T/C values between a quarter and a half above the control. Other doses and runs of a compound stand elsewhere. T/C is the treated group as % of the vehicle group. Some doses have a count of surviving animals in place of a T/C: the source files T/C as zero there, which appears to mark a toxic dose or a test without result, not a measured value. Some doses without a T/C left all or most animals alive at the check, yet need not have been tolerated: survival well below the control is almost never listed, so the zero probably covers shortened survival too. Counts of survivors are from the toxicity check (mostly the fifth day) where no day follows; animals may have died later. Schedules are NCI's codes, taken here to give the interval after Q, in days (D) or hours (H), and the number of doses after X. Some entries hold several experiments; the values are given in rising order. Some schedules carry Z or #; the key to these is not given. Where survival is the endpoint, the PubChem record calls one and a half times the control and up active, and a quarter to a half above the control has no call in these data; cut-offs in other NCI protocols can differ. Some T/C values carry the count of animals alive at the toxicity check (mostly the fifth day); where none is given, no animal had died by that day.

System: L1210 leukemia ip in BDF1 mice, survival T/C
Assay: NCI In Vivo Anticancer Drug Screen. Data for tumor model L1210 Leukemia (intraperitoneal) in B6D2F1 (BDF1) mice
Conditions: higher T/C = longer survival
[1] = T/C endpoint: mean survival time, dose: 400.0 mg/kg/injection, schedule: Q01DX001 (ip), vehicle: saline
[2] = T/C endpoint: mean survival time, dose: 400.0 mg/kg/injection, schedule: Q04DX003 (ip), vehicle: saline with Tween-80
[3] = T/C endpoint: mean survival time, dose: 300.0 mg/kg/injection, schedule: Q01DX001 (ip), vehicle: other
[4] = T/C endpoint: mean survival time, dose: 200.0 mg/kg/injection, schedule: Q04DX003 (ip), vehicle: saline with Tween-80
[5] = T/C endpoint: mean survival time, dose: 400.0 mg/kg/injection, schedule: Q01DX001 (ip), vehicle: carboxymethylcellulose (CMC)
[6] = T/C endpoint: median survival time, dose: 20.0 mg/kg/injection, schedule: Q01DX009 (ip), vehicle: saline

Question: Which survivor count (T/C endpoint: mean survival time, dose: 20.0 mg/kg/injection, schedule: Q01DX001 (ip), vehicle: other) does the source give for `S=C=NCc1ccc(Br)cc1` here?
Answer: 1 of 6

Question: And the survivor count (T/C endpoint: mean survival time, dose: 40.0 mg/kg/injection, schedule: Q01DX001 (ip), vehicle: other)?
Answer: 0 of 6

Question: And the survivor count (T/C endpoint: mean survival time, dose: 75.0 mg/kg/injection, schedule: Q01DX001 (ip), vehicle: carboxymethylcellulose (CMC))?
Answer: 0 of 6

Question: What about the survivor count (T/C endpoint: mean survival time, dose: 150.0 mg/kg/injection, schedule: Q01DX001 (ip), vehicle: carboxymethylcellulose (CMC)) of the same compound?
Answer: 1 of 6

Question: What about the survivor count (T/C endpoint: mean survival time, dose: 300.0 mg/kg/injection, schedule: Q01DX001 (ip), vehicle: carboxymethylcellulose (CMC)) of the same compound?
Answer: 0 of 6

Question: Which survivor count (T/C endpoint: mean survival time, dose: 200.0 mg/kg/injection, schedule: Q01DX001 (ip), vehicle: saline) does the source give for `CC1=CC(=O)C=CC1=Nc1cc(Cl)c(O)c(Cl)c1` here?
Answer: 0 of 4

Question: And the survivor count [1]?
Answer: 0 of 4

Question: `CCCCCCNC(=S)Nc1ccccc1` was tested. Which survivor count [1] did it give?
Answer: 1 of 4

Question: With `COc1cc(N=Nc2ccccc2)ccc1N` as the compound, how does the survivor count (T/C endpoint: mean survival time, dose: 200.0 mg/kg/injection, schedule: Q04DX003 (ip), vehicle: acetone) read?
Answer: 6 of 6

Question: `Nc1c2ccccc2cc2ccccc12` was tested. Which survivor count [2] did it give?
Answer: 2 of 6

Question: What does the source list for `Brc1cccc[n+]1-c1cccc(-c2cccc(-[n+]3ccccc3Br)c2)c1`?
Answer: survivor count (T/C endpoint: mean survival time, dose: 37.5 mg/kg/injection, schedule: Q01DX001 (ip), vehicle: other): 1 of 6; survivor count (T/C endpoint: mean survival time, dose: 75.0 mg/kg/injection, schedule: Q01DX001 (ip), vehicle: other): 1 of 6; survivor count (T/C endpoint: mean survival time, dose: 150.0 mg/kg/injection, schedule: Q01DX001 (ip), vehicle: other): 1 of 6; survivor count [3]: 0 of 6

Question: How did the survivor count (T/C endpoint: mean survival time, dose: 100.0 mg/kg/injection, schedule: Q04DX003 (ip), vehicle: saline with Tween-80) turn out when `CCOc1ccc2c(c1)c(C)cc(C)[n+]2CC` was run?
Answer: 0 of 3

Question: What about the survivor count [4] of the same compound?
Answer: 0 of 3

Question: And the survivor count [2]?
Answer: 0 of 3

Question: `C[n+]1ncc2ccccc2c1Cc1ccc(Br)cc1` was tested. Which survivor count (T/C endpoint: mean survival time, dose: 25.0 mg/kg/injection, schedule: Q01DX009 (ip), vehicle: other) did it give?
Answer: 1 of 3 and 3 of 6

Question: And the survivor count (T/C endpoint: mean survival time, dose: 25.0 mg/kg/injection, schedule: Q04DX002 (ip), vehicle: carboxymethylcellulose (CMC))?
Answer: 3 of 3 and 6 of 6

Question: What about the survivor count (T/C endpoint: mean survival time, dose: 50.0 mg/kg/injection, schedule: Q04DX002 (ip), vehicle: carboxymethylcellulose (CMC)) of the same compound?
Answer: 1 of 3 and 5 of 6

Question: And the survivor count (T/C endpoint: mean survival time, dose: 50.0 mg/kg/injection, schedule: Q04DX002 (ip), vehicle: other)?
Answer: 1 of 3 and 3 of 6

Question: What about the survivor count (T/C endpoint: mean survival time, dose: 100.0 mg/kg/injection, schedule: Q04DX002 (ip), vehicle: carboxymethylcellulose (CMC)) of the same compound?
Answer: 1 of 3 and 2 of 6

Question: What about the survivor count (T/C endpoint: mean survival time, dose: 100.0 mg/kg/injection, schedule: Q04DX002 (ip), vehicle: other) of the same compound?
Answer: 0 of 3, 0 of 6, 1 of 3

Question: What about the survivor count (T/C endpoint: mean survival time, dose: 200.0 mg/kg/injection, schedule: Q04DX002 (ip), vehicle: other) of the same compound?
Answer: 0 of 3 and 0 of 6

Question: And the survivor count (T/C endpoint: mean survival time, dose: 400.0 mg/kg/injection, schedule: Q04DX002 (ip), vehicle: other)?
Answer: 0 of 3 and 0 of 6

Question: For `Nc1ccnc2cc(Cl)ccc12`, which survivor count [3] is on record?
Answer: 0 of 6

Question: Which results are given for `C[P+]1(CCc2ccc(Cl)cc2)CC(Br)C(Br)C1` (centres undefined)?
Answer: survivor count (T/C endpoint: mean survival time, dose: 200.0 mg/kg/injection, schedule: Q01DX001 (ip), vehicle: Klucel (hydroxypropylcellulose) (HPC)): 0 of 6; survivor count (T/C endpoint: mean survival time, dose: 400.0 mg/kg/injection, schedule: Q01DX001 (ip), vehicle: Klucel (hydroxypropylcellulose) (HPC)): 0 of 6

Question: Which survivor count [4] does the source give for `CCCCCCC1N(C)CCCN1C` here?
Answer: 0 of 6

Question: What about the survivor count [2] of the same compound?
Answer: 0 of 6

Question: For `Fc1ccc(NC(=S)NCCN2CCCC2)cc1`, which survivor count (T/C endpoint: mean survival time, dose: 200.0 mg/kg/injection, schedule: Q01DX009 (ip), vehicle: Klucel (hydroxypropylcellulose) (HPC)) is on record?
Answer: 3 of 6

Question: And the survivor count (T/C endpoint: mean survival time, dose: 400.0 mg/kg/injection, schedule: Q01DX009 (ip), vehicle: Klucel (hydroxypropylcellulose) (HPC))?
Answer: 0 of 6

Question: `CCCCCCCCCCCCNC=O` was tested. Which survivor count (T/C endpoint: mean survival time, dose: 50.0 mg/kg/injection, schedule: Q01DX009 (ip), vehicle: saline) did it give?
Answer: 3 of 3

Question: What about the survivor count (T/C endpoint: mean survival time, dose: 200.0 mg/kg/injection, schedule: Q01DX009 (ip), vehicle: saline) of the same compound?
Answer: 1 of 3

Question: Which results are given for `O=C(CCBr)N1CCN(C(=O)CCBr)CC1`?
Answer: T/C (T/C endpoint: mean survival time, dose: 6.25 mg/kg/injection, schedule: Q01DX Z (oral), vehicle: carboxymethylcellulose (CMC)): 126 % of control; T/C (T/C endpoint: mean survival time, dose: 22.5 mg/kg/injection, schedule: Q01DX Z (ip), vehicle: methylcellulose (MC)): 132 % of control; T/C (T/C endpoint: mean survival time, dose: 24.0 mg/kg/injection, schedule: Q01DX Z (ip), vehicle: carboxymethylcellulose (CMC)): 134 % of control [5 of 6 alive]; T/C (T/C endpoint: mean survival time, dose: 36.0 mg/kg/injection, schedule: Q01DX Z (ip), vehicle: carboxymethylcellulose (CMC)): 129 % of control; T/C (T/C endpoint: mean survival time, dose: 40.0 mg/kg/injection, schedule: Q01DX009 (ip), vehicle: saline): 125 and 138 % of control; T/C (T/C endpoint: mean survival time, dose: 43.5 mg/kg/injection, schedule: Q07DX006 (ip), vehicle: carboxymethylcellulose (CMC)): 128 % of control; T/C (T/C endpoint: mean survival time, dose: 50.0 mg/kg/injection, schedule: Q01DX Z (oral), vehicle: carboxymethylcellulose (CMC)): 147 % of control; T/C (T/C endpoint: mean survival time, dose: 54.0 mg/kg/injection, schedule: Q01DX Z (ip), vehicle: carboxymethylcellulose (CMC)): 141 and 144 % of control; T/C (T/C endpoint: mean survival time, dose: 75.0 mg/kg/injection, schedule: Q03DX008 (ip), vehicle: carboxymethylcellulose (CMC)): 140 % of control; T/C (T/C endpoint: mean survival time, dose: 80.0 mg/kg/injection, schedule: Q01DX009 (ip), vehicle: saline): 124, 164, 173, 189 % of control [5 of 6 alive]; T/C (T/C endpoint: mean survival time, dose: 81.0 mg/kg/injection, schedule: Q01DX Z (ip), vehicle: carboxymethylcellulose (CMC)): 143 % of control; T/C (T/C endpoint: mean survival time, dose: 87.0 mg/kg/injection, schedule: Q07DX004 (ip), vehicle: carboxymethylcellulose (CMC)): 125 % of control; T/C (T/C endpoint: mean survival time, dose: 100.0 mg/kg/injection, schedule: Q01DX001 (ip), vehicle: saline, evaluated on day 30): 128 % of control [5 of 6 alive]; T/C (T/C endpoint: mean survival time, dose: 100.0 mg/kg/injection, schedule: Q01DX001 (ip), vehicle: saline, run until all animals had died): 145 % of control; T/C (T/C endpoint: mean survival time, dose: 100.0 mg/kg/injection, schedule: Q01DX Z (im), vehicle: carboxymethylcellulose (CMC)): 135 % of control; T/C (T/C endpoint: mean survival time, dose: 100.0 mg/kg/injection, schedule: Q01DX Z (sc), vehicle: carboxymethylcellulose (CMC)): 148 % of control; T/C (T/C endpoint: mean survival time, dose: 100.0 mg/kg/injection, schedule: Q04DX003 (ip), vehicle: saline): 147 % of control; T/C (T/C endpoint: mean survival time, dose: 175.0 mg/kg/injection, schedule: Q07DX004 (ip), vehicle: carboxymethylcellulose (CMC)): 146 % of control; T/C (T/C endpoint: mean survival time, dose: 200.0 mg/kg/injection, schedule: Q01DX006 (iv), vehicle: saline): 128 % of control; T/C [5]: 131 % of control; T/C [1]: 145 % of control [5 of 6 alive]; T/C (T/C endpoint: mean survival time, dose: 400.0 mg/kg/injection, schedule: Q01DX006 (iv), vehicle: saline): 143 % of control; survivor count (T/C endpoint: mean survival time, dose: 400.0 mg/kg/injection, schedule: Q01DX Z (oral), vehicle: carboxymethylcellulose (CMC)): 5 of 6; survivor count (T/C endpoint: mean survival time, dose: 800.0 mg/kg/injection, schedule: Q01DX Z (im), vehicle: carboxymethylcellulose (CMC)): 1 of 6; survivor count (T/C endpoint: mean survival time, dose: 800.0 mg/kg/injection, schedule: Q01DX Z (ip), vehicle: carboxymethylcellulose (CMC)): 2 of 6; survivor count (T/C endpoint: mean survival time, dose: 800.0 mg/kg/injection, schedule: Q01DX Z (sc), vehicle: carboxymethylcellulose (CMC)): 2 of 6; survivor count (T/C endpoint: mean survival time, dose: 1200.0 mg/kg/injection, schedule: Q03DX003 (ip), vehicle: carboxymethylcellulose (CMC)): 0 of 6; T/C [6]: 127 % of control; survivor count [6]: 6 of 6; T/C (T/C endpoint: median survival time, dose: 40.0 mg/kg/injection, schedule: Q01DX009 (ip), vehicle: saline): 144 % of control

Question: Which results are given for `CCN(CC)C(=S)N1C(=O)C2C3CCC(O3)C2C1=O` (centres undefined)?
Answer: survivor count (T/C endpoint: mean survival time, dose: 100.0 mg/kg/injection, schedule: Q04DX002 (ip), vehicle: saline with Tween-80): 0 of 3; survivor count (T/C endpoint: mean survival time, dose: 200.0 mg/kg/injection, schedule: Q04DX002 (ip), vehicle: saline with Tween-80): 0 of 3; survivor count (T/C endpoint: mean survival time, dose: 400.0 mg/kg/injection, schedule: Q04DX002 (ip), vehicle: saline with Tween-80): 0 of 3

Question: What does the source list for `CS(=O)(=O)OCCBr`?
Answer: survivor count (T/C endpoint: mean survival time, dose: 200.0 mg/kg/injection, schedule: Q01DX001 (ip), vehicle: carboxymethylcellulose (CMC)): 0 of 6; survivor count [5]: 0 of 6
